Laboratory results from PMC7819943, “Rice protein-binding microarrays: a tool to detect cis-acting elements near promoter regions in rice”.
Some of the results follow.

By UniProt entry, the sequences of proteins in these tests, tags left out.
UniProt Q0JBA9, entry or part of it: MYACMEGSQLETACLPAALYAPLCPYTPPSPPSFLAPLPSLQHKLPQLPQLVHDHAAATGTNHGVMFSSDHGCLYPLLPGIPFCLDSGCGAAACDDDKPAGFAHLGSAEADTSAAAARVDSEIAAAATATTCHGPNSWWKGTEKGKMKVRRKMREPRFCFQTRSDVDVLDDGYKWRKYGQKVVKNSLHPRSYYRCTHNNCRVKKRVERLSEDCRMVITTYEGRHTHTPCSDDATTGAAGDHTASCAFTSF

The sequences below were run against OsWRKY34 (Oryza sativa, UniProt Q0JBA9 1-250) (assay: protein-binding microarray (RPBM); PBS, 2% BSA, 51.3 ng/ul salmon testes DNA, 50 uM zinc acetate, 200 nM TF, 25 C, 1 h; high values mean tight binding). Details: protein: recombinant; tags: N-terminal polyhistidine and DsRed monomer fusion (pET32a); label: CyDye5-dUTP incorporated in the synthesized complementary strand; 3' TTTTT single-stranded linker to array surface; dsDNA, one strand shown.
Summary of the method: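 The binding signal for each feature is its fluorescence intensity in arbitrary units. An Axon 4000B scanner was used to read a custom Agilent array that had been made double-stranded with Cy5-dUTP primer extension, blocked with 2% BSA, incubated at 25 °C for 1 h with 200 nM protein in PBS, 2% BSA, salmon testes DNA and 50 µM zinc acetate, and washed. The protein was an N-terminal polyhistidine–DsRed transcription factor fusion from E. coli BL21-CodonPlus, purified on Ni–NTA.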

| Sequence | binding signal |
| --- | --- |
| GGTGGGCCGAGGTACACACGTGGGGATGGTTGTGGAAAAACGGAGTCACCTAGTGCAG | 8550 fluorescence intensity (a.u.) |
| TTTGTTTCAGTTCGTTTCTTTTGTCGTTCTCACAAAAATGCGGAGTCACCTAGTGCAG | 8600 fluorescence intensity (a.u.) |
| TCTCTTCTCTTTCTCTCCTCTCTTTTTGCCGCCGCTCGAGCGGAGTCACCTAGTGCAG | 8900 fluorescence intensity (a.u.) |
| AAGTTAAGCAGATCTTCCAGGCCAGTGTGTGTTTTTCGCACGGAGTCACCTAGTGCAG | 9700 fluorescence intensity (a.u.) |
| CTTGACGCGTGCCCATTCTCCAACCCATGTCCGGCTAGGACGGAGTCACCTAGTGCAG | 8600 fluorescence intensity (a.u.) |
| GAATGGGTTATCTCAGTTAATTCCAACCTATCCTTTGGGTCGGAGTCACCTAGTGCAG | 9490 fluorescence intensity (a.u.) |
| CCATTCCTCAGTTAGTTCCAATGCATGCAGTTCCTGTCCTCGGAGTCACCTAGTGCAG | 9000 fluorescence intensity (a.u.) |
| ATTACCGCATGATTAATTAAATATTTACTATTTTTTTTCACGGAGTCACCTAGTGCAG | 9980 fluorescence intensity (a.u.) |
| TTTACCACGTTTCATTCCTTTTGTGATGTTACCACACTAGCGGAGTCACCTAGTGCAG | 8130 fluorescence intensity (a.u.) |
| ACACATCAATGTCGTTACCAGGTCACCATGTGCATCTACACGGAGTCACCTAGTGCAG | 9860 fluorescence intensity (a.u.) |
| ACATATTTGCCCCTTCACTTTGACCATGAAACGCGCAAAACGGAGTCACCTAGTGCAG | 8040 fluorescence intensity (a.u.) |
| GCGTTATTTCCTGTGCATAAATTTAGTTTACTTAGTTAGACGGAGTCACCTAGTGCAG | 8040 fluorescence intensity (a.u.) |
| ATTTGTTTTGGACCTCTAATTGTTTCTTGAATTCTCTTCTCGGAGTCACCTAGTGCAG | 10300 fluorescence intensity (a.u.) |
| TACAGTAGTAGTACCATGGTTTAATTATTTGTAGCCTTATCGGAGTCACCTAGTGCAG | 8900 fluorescence intensity (a.u.) |
| CGAACCCGTCCGTCGTCCGCCACGGCGCCACCACGCCGCCCGGAGTCACCTAGTGCAG | 9130 fluorescence intensity (a.u.) |
| TCTAAATAGTATTTAGCACACTCATCTTCTAGGATTTGTCCGGAGTCACCTAGTGCAG | 8290 fluorescence intensity (a.u.) |
| TTCATCATTCTCTTTCTTTCTTATGTTAACCTCGTACTACCGGAGTCACCTAGTGCAG | 8940 fluorescence intensity (a.u.) |
| CGCTAATCCACCTATTTTTATTCTTCTCTCCCACCCCAAACGGAGTCACCTAGTGCAG | 8240 fluorescence intensity (a.u.) |
| CTTCTCCTGCATGGCAAGTCGCTGATCACAACTACGCATCCGGAGTCACCTAGTGCAG | 8250 fluorescence intensity (a.u.) |
| GAGTCCGAATGTGGGCGGGAGATGTGGGCGTTGAGATATGCGGAGTCACCTAGTGCAG | 8110 fluorescence intensity (a.u.) |
| TCCCACGCAGCCACACTAGCTCCACTCAACTTGCGCTTCCCGGAGTCACCTAGTGCAG | 9710 fluorescence intensity (a.u.) |
| GCCGTCGCCGCCGCCTTCGACCACTACACCGGCTACCCCGCGGAGTCACCTAGTGCAG | 10200 fluorescence intensity (a.u.) |
| CGATCCGTCCGTCCATGGAGTCCCGCTTTGACCCGCCTCCCGGAGTCACCTAGTGCAG | 9040 fluorescence intensity (a.u.) |

An excerpt of these results, with each value named:
GCCGTCGCCGCCGCCTTCGACCACTACACCGGCTACCCCGCGGAGTCACCTAGTGCAG
  binding signal: 10200 fluorescence intensity (a.u.)
CGATCCGTCCGTCCATGGAGTCCCGCTTTGACCCGCCTCCCGGAGTCACCTAGTGCAG
  binding signal: 9040 fluorescence intensity (a.u.)
